Source: PMC12040169 (PLOS Biology, 2025)
The other results are listed elsewhere or left out.

Test system: T1, CTL2-GFP (C. trachomatis L2/434/Bu, GFP-expressing)
T1 construct: L2/434/Bu, GFP-expressing
Parameters: species or system HeLa; Intracellular C. trachomatis growth in HeLa cells, bulk GFP fluorescence relative to DMSO
Settings: bulk GFP, single well; 28.5 h, 10 µM; inhibitor

Row | SMILES | % of control remaining [%]
1 | CCN1CCN(Cc2c(C(F)(F)F)[nH]c3ncccc23)CC1 [CBK285362] | 114.24
2 | COc1ccc(S(=O)(=O)N(C)c2ccc(N3CCNCC3)c3ccccc23)cc1 [CBK022404C] | 88.3548
3 | O=S(=O)(c1ccc(-c2ccccc2)cc1)N1CCCN(CCCOC2CCCCO2)CC1 (stereo not shown) [CBK063137] | 75.1328
4 | COC(=O)CCc1ccc(S(=O)(=O)N2CCCN(Cc3c(-c4ccccc4)noc3C)CC2)cc1 [CBK063011] | 94.3791
5 | CC1(C)CC(O[Si](C)(C)OC2CC(C)(C)NC(C)(C)C2)CC(C)(C)N1 [CBK261942] | 102.013
6 | CC(C)c1cc(C(C)C)c(S(=O)(=O)n2cnc3c2c(=O)[nH]c(=O)n3C)c(C(C)C)c1 [CBK018772] | 106.78
7 | CC(Oc1cccc(F)c1)C(=O)N(Cc1cccnc1)CC1CCCO1 (stereo not shown) [CBK305313] | 112.562
8 | NC(=O)c1ccc(NC(=O)N2CCc3ccccc3C2)cc1 [CBK155299] | 108.321
9 | Cn1c(=O)c2c(ncn2Cc2noc(-c3ccoc3)n2)n(C)c1=O [CBK304945] | 107.276
10 | NS(=O)(=O)c1ccc(NC(=O)/C(=C/c2ccc(Br)cc2)NC(=O)c2ccccc2)cc1 [CBK262109] | 60.7361
11 | CN(C(=O)C1CCN(C(=O)c2ccoc2)CC1)C(c1ccc(F)cc1)c1ccccn1 (stereo not shown) [CBK060206] | 118.05
12 | O=C(CSc1ccc2ccccc2c1)NCc1ccco1 [CBK269699] | 129.131
13 | Cc1ccc(Cn2ncc3c(N4CCCC4)ncnc32)cc1 [CBK287601] | 130.984
14 | Cc1nc(C)n(CC2CCCCN2Cc2cn3ccccc3n2)n1 (stereo not shown) [CBK304008] | 97.8817
15 | CCN1CCN(S(=O)(=O)c2cccc3c(S(=O)(=O)N4CCN(CC)CC4)cccc23)CC1 [CBK269611] | 99.0564
16 | CCC(=O)N1CCC2(CC1)CNC(=O)c1cc(C)ccc1O2 [CBK282468] | 126.438
17 | O=S(=O)(NCc1ccccc1)c1ccc(Cl)c(S(=O)(=O)NCc2ccccc2)c1 [CBK263251] | 112.5
18 | O=C(Cn1cccc(C(=O)NCc2ccccc2)c1=O)NC1(c2ccccc2)CCCC1 [CBK286058] | 120.466
19 | COc1cc(Cc2c(OCCN(C)C)nc3ccccn3c2=O)cc(OC)c1OC [CBK005004C] | 124.556
20 | Cc1cc(-c2nccnc2NCCCN2CCOCC2)cc(C)c1O [CBK036598] | 196.569
21 | Cc1cccc(=O)n1CCCn1cnc2nccnc2c1=O [CBK307186] | 87.988
22 | O=C(O)c1cc(NC(=O)C(c2ccccc2)c2ccccc2)cc(C(=O)O)c1 [CBK261191] | 96.6997
23 | O=c1[nH]c2ccccc2n1CCCN1CCC2(CC1)CN(CCO)c1ccccc12 [CBK137133] | 116.077
24 | CN(Cc1ccccc1)C1(O)C(=O)Nc2ccc(Cl)cc21 (stereo not shown) [CBK269703] | 116.712
25 | O=[N+]([O-])c1ccc(NC(c2ccccc2)C2CC2)nc1 (stereo not shown) [CBK295317] | 116.944

Part of the list above, set out differently:
Row	SMILES	% of control remaining [%]
5	CC1(C)CC(O[Si](C)(C)OC2CC(C)(C)NC(C)(C)C2)CC(C)(C)N1 [CBK261942]	102.013
6	CC(C)c1cc(C(C)C)c(S(=O)(=O)n2cnc3c2c(=O)[nH]c(=O)n3C)c(C(C)C)c1 [CBK018772]	106.78
7	CC(Oc1cccc(F)c1)C(=O)N(Cc1cccnc1)CC1CCCO1 (stereo not shown) [CBK305313]	112.562

The list goes on:

Row | SMILES | % of control remaining [%]
26 | Cc1nc(N2CCN(C)CC2)ncc1C(=O)NCCSc1cnn[nH]1 [CBK306623] | 121.713
27 | Cc1ccc(S(=O)(=O)N(CC(=O)NC2CCCC2)Cc2ccccc2)cc1 [CBK263166] | 123.643
28 | Cc1ccc(C(=O)O)cc1S(=O)(=O)Nc1ccc(-c2cn3ccsc3n2)cc1 [CBK296688] | 100
29 | Cc1cccc2[nH]c(-c3ccccc3)nc12 [CBK000110] | 119.664
30 | O=C(/C=C\c1cn(-c2ccccc2)nc1-c1cccc([N+](=O)[O-])c1)n1nnc2ccccc21 [CBK265273] | 138.336
31 | Fc1ccccc1-c1nccnc1NCc1ccncc1 [CBK037540] | 169.781
32 | COc1ccc(F)c(CNCC2CCN(C(=O)OC(C)(C)C)CC2)c1 [CBK056716] | 145.274
33 | Cc1noc(NS(=O)(=O)c2ccc(NC(=O)/C=C/c3ccc(Cl)cc3Cl)cc2)c1C [CBK263115] | 100
34 | Cn1c(=O)n(CC(=O)NCCc2ccccc2)c2cccnc21 [CBK283910] | 145.081
35 | O=C(Cc1cccc2ccccc12)Nc1nnc(C2=COCCO2)o1 [CBK287414] | 148.296
36 | C#CC1(OC(=O)CC)CCN(CCCC(=O)c2ccc(F)cc2)CC1 [CBK025277C] | 99.6705
37 | CC1(C)CC(=O)C2=C(C1)Nc1ccccc1N(CC(=O)O)C2c1cccs1 (stereo not shown) [CBK286597] | 110.087
38 | Cc1cc(S(=O)(=O)Nc2cc(C3CC3)nn2C)c(C)cc1Cl [CBK043994] | 99.2373
39 | Nc1nc(CSCCO)nc(Nc2ccc(F)cc2)n1 [CBK265542] | 130.791
40 | Clc1ccc(CN2CCCN(c3cc(OC4CCCCC4)ncn3)CC2)cc1Cl [CBK083338T] | 111.699
41 | CCCc1[nH]nc(O)c1Cc1ccccc1CS(=O)(=O)c1ccccc1 [CBK074347] | 126.754
42 | NCc1ccc(C(=O)N(CCc2cc(C(F)(F)F)cc(C(F)(F)F)c2)c2ccc(Cl)c(Cl)c2)cc1 [CBK008632T] | 62.4071
43 | CCN(CC)C(=O)[C@@H]1CCCN(C2CCN(C(=O)c3c4ccccc4cc4ccccc34)CC2)C1 [CBK066966C] | 115.422
44 | CN1C(=O)CC(NCc2ccc(S(N)(=O)=O)cc2)C1=O (stereo not shown) [CBK262352] | 113.443
45 | C=CCN1C(=O)CC2(C1=O)C(=O)N(CCCN1C(=O)c3ccccc3C1=O)c1ccc(Cl)cc12 (stereo not shown) [CBK075443] | 137.12
46 | CCc1c(C)nc2c(C)cccc2c1SCC(=O)O [CBK263554] | 119.876
47 | COc1ccc(C)cc1C1(CNC(=O)C2CC2C(=O)O)CCOCC1 (stereo not shown) [CBK304492] | 136.381
48 | CN(C)C(=O)CN1C(=O)CC2(C1=O)C(=O)N(CC(=O)O)c1ccc(F)cc12 (stereo not shown) [CBK076119] | 95.0747
49 | O=C1CNC(=O)C2(C/C=C/C[C@H]3COCC[C@H]3N1)CCN(C(=O)Cc1cccnc1)CC2 [CBK292068] | 129.405
